Test results taken from the supplement of paper PMC10849652.
The other results are listed elsewhere or left out.

Amino acid sequences for entries named in this document (tags omitted). A change or cut given only in a name is not applied to a line headed by its entry.
UniProt P06454: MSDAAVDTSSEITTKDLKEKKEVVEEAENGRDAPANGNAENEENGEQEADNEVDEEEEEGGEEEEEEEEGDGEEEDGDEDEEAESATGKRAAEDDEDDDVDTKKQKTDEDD
UniProt Q9H3S7: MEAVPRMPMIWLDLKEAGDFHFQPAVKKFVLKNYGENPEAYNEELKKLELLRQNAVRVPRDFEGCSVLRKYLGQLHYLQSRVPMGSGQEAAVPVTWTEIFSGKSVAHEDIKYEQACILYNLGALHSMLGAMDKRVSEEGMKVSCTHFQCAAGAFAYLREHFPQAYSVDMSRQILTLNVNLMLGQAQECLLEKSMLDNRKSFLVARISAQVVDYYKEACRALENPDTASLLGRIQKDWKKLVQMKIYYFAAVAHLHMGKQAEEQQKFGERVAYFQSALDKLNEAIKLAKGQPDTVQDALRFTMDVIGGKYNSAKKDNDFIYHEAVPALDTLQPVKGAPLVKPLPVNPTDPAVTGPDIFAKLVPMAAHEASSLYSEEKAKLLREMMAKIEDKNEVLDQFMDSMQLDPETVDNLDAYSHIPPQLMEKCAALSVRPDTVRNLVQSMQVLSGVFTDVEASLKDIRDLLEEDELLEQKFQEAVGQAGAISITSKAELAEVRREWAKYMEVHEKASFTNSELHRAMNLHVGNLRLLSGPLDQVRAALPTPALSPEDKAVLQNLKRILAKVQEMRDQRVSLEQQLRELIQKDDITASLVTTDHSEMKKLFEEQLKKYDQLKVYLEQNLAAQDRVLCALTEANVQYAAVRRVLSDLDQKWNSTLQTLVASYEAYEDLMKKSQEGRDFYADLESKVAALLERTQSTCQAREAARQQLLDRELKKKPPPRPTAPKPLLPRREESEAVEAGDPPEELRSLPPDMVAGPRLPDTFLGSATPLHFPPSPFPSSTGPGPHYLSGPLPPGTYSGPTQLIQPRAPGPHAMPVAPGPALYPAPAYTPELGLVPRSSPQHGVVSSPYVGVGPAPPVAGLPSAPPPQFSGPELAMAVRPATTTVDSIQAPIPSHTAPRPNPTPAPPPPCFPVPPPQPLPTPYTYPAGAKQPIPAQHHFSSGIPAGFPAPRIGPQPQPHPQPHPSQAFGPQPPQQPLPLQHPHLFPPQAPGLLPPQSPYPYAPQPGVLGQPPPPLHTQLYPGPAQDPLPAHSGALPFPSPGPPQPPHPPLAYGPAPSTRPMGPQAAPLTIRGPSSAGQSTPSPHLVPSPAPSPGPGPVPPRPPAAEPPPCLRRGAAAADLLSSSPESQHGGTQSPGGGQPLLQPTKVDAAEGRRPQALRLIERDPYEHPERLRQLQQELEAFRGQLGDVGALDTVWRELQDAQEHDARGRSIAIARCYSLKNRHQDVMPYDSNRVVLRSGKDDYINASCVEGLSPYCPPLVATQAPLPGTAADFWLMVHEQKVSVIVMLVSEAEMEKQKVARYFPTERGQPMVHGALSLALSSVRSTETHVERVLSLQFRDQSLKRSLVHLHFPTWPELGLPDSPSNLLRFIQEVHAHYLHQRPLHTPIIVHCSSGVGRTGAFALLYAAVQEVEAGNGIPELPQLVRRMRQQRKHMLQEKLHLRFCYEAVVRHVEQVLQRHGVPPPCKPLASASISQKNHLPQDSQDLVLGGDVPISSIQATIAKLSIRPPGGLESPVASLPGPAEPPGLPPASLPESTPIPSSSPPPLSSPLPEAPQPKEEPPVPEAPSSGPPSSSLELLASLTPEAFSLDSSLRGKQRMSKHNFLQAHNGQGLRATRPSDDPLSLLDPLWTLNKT
UniProt P25788: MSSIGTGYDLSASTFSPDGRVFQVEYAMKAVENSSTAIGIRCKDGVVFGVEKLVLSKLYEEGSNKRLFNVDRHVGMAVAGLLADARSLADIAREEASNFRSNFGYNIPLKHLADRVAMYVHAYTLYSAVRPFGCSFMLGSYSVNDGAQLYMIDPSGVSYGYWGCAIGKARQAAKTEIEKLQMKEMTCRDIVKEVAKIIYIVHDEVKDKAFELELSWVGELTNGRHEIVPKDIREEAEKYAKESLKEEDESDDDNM
UniProt Q96I23: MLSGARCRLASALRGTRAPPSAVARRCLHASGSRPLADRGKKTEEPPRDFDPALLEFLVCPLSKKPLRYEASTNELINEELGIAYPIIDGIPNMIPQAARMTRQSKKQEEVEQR
UniProt P28070, whole entry, looked up: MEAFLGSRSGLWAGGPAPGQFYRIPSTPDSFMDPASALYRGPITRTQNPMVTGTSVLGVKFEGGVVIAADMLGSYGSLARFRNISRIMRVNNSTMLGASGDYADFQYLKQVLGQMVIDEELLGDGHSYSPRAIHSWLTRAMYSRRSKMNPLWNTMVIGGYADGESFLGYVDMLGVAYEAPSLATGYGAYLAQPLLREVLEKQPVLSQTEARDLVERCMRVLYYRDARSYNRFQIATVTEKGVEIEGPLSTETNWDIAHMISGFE
UniProt O95758: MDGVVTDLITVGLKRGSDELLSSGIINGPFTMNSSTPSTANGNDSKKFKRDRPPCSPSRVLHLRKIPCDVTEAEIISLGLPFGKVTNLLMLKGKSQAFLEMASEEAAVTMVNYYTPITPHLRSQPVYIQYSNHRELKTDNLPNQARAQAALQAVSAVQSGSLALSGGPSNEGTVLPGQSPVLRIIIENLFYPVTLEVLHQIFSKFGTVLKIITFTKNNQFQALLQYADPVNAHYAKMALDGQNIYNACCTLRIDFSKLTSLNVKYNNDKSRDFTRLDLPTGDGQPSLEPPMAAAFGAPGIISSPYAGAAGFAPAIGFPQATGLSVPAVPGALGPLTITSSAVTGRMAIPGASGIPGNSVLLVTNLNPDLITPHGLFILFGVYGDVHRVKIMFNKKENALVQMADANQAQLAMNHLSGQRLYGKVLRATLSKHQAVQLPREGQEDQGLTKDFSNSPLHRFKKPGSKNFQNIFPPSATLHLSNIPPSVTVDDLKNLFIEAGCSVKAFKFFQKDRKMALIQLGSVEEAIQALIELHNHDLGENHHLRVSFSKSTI
UniProt P09417: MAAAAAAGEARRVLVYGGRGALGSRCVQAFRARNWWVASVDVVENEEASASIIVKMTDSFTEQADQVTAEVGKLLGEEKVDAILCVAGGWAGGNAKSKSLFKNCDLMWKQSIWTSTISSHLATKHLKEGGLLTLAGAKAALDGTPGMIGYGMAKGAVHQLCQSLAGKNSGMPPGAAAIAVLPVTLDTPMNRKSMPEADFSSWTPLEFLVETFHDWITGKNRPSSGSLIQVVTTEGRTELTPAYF
UniProt Q15032: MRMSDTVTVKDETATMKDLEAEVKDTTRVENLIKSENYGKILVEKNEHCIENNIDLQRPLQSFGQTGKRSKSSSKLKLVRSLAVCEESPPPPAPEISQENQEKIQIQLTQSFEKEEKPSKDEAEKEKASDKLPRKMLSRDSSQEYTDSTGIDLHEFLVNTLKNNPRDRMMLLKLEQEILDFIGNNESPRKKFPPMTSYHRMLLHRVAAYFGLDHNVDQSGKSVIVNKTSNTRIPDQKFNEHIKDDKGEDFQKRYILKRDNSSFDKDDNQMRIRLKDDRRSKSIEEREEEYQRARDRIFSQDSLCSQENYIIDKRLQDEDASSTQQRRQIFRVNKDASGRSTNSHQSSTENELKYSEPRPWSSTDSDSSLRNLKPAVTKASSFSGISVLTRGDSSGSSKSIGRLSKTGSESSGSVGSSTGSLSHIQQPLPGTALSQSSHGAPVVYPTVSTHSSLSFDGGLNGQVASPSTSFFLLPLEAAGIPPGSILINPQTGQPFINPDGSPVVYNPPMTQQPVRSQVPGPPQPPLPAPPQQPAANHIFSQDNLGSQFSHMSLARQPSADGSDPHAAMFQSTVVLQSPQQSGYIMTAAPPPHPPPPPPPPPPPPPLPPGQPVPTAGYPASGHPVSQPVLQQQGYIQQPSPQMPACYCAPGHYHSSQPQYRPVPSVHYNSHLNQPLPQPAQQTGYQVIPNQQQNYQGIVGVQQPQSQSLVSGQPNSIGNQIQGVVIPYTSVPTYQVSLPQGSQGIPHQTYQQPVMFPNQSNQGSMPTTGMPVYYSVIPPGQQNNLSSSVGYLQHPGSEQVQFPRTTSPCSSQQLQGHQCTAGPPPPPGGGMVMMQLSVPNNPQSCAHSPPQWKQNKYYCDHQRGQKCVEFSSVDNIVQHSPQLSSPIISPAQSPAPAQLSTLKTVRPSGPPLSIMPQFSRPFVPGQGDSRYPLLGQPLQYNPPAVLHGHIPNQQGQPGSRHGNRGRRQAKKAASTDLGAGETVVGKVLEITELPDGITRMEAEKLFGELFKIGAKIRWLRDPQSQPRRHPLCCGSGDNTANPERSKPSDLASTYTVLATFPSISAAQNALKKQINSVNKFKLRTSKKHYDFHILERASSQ
UniProt Q9UNM6: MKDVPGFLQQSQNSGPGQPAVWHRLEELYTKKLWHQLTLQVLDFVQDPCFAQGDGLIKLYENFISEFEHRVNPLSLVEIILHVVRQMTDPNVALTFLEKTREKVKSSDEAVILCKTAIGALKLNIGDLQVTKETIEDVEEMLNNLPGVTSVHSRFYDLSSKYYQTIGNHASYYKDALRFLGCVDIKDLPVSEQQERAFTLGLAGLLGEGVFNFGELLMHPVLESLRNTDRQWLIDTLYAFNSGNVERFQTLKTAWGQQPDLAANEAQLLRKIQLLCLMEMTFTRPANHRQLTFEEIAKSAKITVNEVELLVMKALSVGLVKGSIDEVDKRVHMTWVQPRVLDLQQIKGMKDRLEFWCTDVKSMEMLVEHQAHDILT
UniProt Q99460, whole entry, looked up: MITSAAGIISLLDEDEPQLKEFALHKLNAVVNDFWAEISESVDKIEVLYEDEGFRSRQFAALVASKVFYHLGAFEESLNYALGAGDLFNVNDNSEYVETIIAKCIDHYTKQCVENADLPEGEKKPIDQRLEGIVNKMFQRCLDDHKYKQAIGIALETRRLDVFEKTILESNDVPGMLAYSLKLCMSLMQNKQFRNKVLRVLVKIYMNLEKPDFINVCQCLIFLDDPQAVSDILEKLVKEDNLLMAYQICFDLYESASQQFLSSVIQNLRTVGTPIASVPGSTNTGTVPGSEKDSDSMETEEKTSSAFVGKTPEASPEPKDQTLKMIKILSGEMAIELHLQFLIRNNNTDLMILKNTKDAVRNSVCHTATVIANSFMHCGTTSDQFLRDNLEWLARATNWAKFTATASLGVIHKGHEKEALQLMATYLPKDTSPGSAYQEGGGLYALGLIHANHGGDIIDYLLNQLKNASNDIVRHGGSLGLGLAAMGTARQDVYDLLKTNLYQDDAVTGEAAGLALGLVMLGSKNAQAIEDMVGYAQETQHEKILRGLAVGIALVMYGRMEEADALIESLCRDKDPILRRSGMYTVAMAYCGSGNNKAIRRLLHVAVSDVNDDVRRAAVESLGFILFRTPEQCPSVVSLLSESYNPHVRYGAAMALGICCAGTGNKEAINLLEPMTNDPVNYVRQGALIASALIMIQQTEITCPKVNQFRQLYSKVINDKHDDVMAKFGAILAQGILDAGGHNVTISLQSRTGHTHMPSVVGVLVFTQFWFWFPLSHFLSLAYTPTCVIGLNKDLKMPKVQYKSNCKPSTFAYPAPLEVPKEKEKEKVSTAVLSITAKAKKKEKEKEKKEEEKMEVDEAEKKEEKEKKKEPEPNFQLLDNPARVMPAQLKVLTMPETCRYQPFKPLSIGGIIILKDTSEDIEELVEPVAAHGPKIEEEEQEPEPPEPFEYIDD
UniProt P28072: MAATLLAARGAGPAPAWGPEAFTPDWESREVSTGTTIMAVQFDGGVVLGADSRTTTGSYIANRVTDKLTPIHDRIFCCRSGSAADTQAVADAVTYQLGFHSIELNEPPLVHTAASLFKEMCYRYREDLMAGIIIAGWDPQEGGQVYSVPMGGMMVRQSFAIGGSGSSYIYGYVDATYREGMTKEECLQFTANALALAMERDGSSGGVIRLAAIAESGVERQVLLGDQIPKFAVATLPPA
UniProt Q96PZ0: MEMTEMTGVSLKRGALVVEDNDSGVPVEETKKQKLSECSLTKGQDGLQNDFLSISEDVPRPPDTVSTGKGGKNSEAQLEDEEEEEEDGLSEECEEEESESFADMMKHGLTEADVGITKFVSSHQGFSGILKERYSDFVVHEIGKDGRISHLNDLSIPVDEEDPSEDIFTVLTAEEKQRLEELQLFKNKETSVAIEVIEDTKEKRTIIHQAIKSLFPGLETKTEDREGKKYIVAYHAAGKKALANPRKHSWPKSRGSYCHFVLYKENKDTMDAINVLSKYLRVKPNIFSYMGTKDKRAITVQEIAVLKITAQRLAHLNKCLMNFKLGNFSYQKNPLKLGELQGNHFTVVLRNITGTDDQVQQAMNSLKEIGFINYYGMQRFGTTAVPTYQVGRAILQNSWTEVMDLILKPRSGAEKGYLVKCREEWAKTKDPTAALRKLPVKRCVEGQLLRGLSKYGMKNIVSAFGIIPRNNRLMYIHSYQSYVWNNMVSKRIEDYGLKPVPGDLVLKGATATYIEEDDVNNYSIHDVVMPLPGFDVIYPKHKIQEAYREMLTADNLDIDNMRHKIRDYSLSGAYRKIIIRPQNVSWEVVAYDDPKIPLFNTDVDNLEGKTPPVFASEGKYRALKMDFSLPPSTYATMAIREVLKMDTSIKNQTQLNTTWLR

These targets were tested with NCC(=O)Nc1ccc(-n2nc(C(F)(F)F)cc2-c2ccc3c(ccc4ccccc43)c2)cc1 (assay: log2 fold change, soluble protein after heating vs DMSO (PISA); higher = thermal stabilisation; K562 cells, 10 uM, 30 min; active = over 0.2 and 3.5 SD of the protein, either way, in both replicates (recomputed)).
Outline: (§1)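 K562 cells at 2×10^6 cells/mL were treated for 30 min with 10 μM compound, and aliquots were heated for 3 min over 48°C-58°C before pooling. Extraction used PBS with 0.5% NP-40 at 4°C, and soluble protein was the supernatant after 21,000xg for 90 min, measured by TMTpro 16plex LC-MS/MS with channel sums equalised. Thermal stability values, relative to control samples and from duplicates, are log2 fold changes.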

Target	log2 fold change
PSMD4 (UniProt Q5VWC4)	inactive: 0.038
QRICH1 (UniProt Q2TAL8)	inactive: -0.093
PSMD3 (UniProt O43242)	inactive: 0.041
PSMA7 isoform 2 (UniProt O14818)	inactive: -0.492
PTMA (UniProt P06454)	inactive: 0.157
QPCTL (UniProt Q9NXS2)	inactive: -0.033
PSMG3 (UniProt Q9BT73)	inactive: 0.085
PSD2 (UniProt Q9BQI7)	inactive: -0.275
PTPN23 (UniProt Q9H3S7)	inactive: -0.063
PSMB2, A0A087WVV1	inactive: -0.184
PSMB10 (UniProt P40306)	inactive: -0.003
PYCARD (UniProt Q9ULZ3)	inactive: -0.001
PSMB7 (UniProt Q99436)	inactive: 0.086
PTPMT1 (UniProt Q8WUK0)	inactive: -0.166
PTPN1 (UniProt P18031)	inactive: -0.052
PTK2B (UniProt Q14289)	inactive: -0.092

Target	log2 fold change
PSMA3 (UniProt P25788)	inactive: 0.058
PYURF (UniProt Q96I23)	inactive: -0.007
PYROXD1 (UniProt Q8WU10)	inactive: -0.059
PSMB4 (UniProt P28070)	inactive: 0.01
QSOX1 (UniProt O00391)	inactive: 0.011
QTRT2 isoform 4 (UniProt Q9H974)	inactive: 0.025
PTBP3 isoform 4 (UniProt O95758)	inactive: -0.093
QDPR (UniProt P09417)	inactive: 0.016
R3HDM1 isoform 2 (UniProt Q15032)	inactive: -0.07
PSMA2 (UniProt P25787)	inactive: 0.04
PSMD13 (UniProt Q9UNM6)	inactive: 0.006
PSMD1 (UniProt Q99460)	inactive: 0.068
PSMB6 (UniProt P28072)	inactive: 0.044
PTP4A2 (UniProt Q12974)	inactive: -0.023
PUS7 isoform 2 (UniProt Q96PZ0)	inactive: 0.027

These targets were tested with Nc1ccccc1NC(=O)c1ccc(CNC(=O)OCc2cccnc2)cc1 [entinostat] in the same assay as above.
Outline: as §1

Target	log2 fold change
PSMD4 (UniProt Q5VWC4)	inactive: 0.02
QRICH1 (UniProt Q2TAL8)	inactive: 0.168
PSMD3 (UniProt O43242)	inactive: -0.02
PSMA7 isoform 2 (UniProt O14818)	inactive: -0.299
PYCR1 isoform 3 (UniProt P32322)	inactive: -0.005
PTMA (UniProt P06454)	inactive: 0.052
QPCTL (UniProt Q9NXS2)	inactive: -0.019
PSMG3 (UniProt Q9BT73)	inactive: 0.002
PSD2 (UniProt Q9BQI7)	inactive: 0.152
PTPN23 (UniProt Q9H3S7)	inactive: 0.06
PSMB2, A0A087WVV1	inactive: -0.051
PSMB10 (UniProt P40306)	inactive: -0.074
PYCARD (UniProt Q9ULZ3)	inactive: 0.02
PSMB7 (UniProt Q99436)	inactive: -0.031
PTPMT1 (UniProt Q8WUK0)	inactive: 0.073
PTPN1 (UniProt P18031)	inactive: 0.018
PTK2B (UniProt Q14289)	inactive: 0.128

Target	log2 fold change
PSMA3 (UniProt P25788)	inactive: -0.027
PTPRN2 isoform 3 (UniProt Q92932)	inactive: -0.121
PYURF (UniProt Q96I23)	inactive: 0.081
PYROXD1 (UniProt Q8WU10)	inactive: 0.032
PSMB4 (UniProt P28070)	inactive: -0.036
QSOX1 (UniProt O00391)	inactive: 0.006
QTRT2 isoform 4 (UniProt Q9H974)	inactive: -0.008
PTBP3 isoform 4 (UniProt O95758)	inactive: 0.032
PSEN2 (UniProt P49810)	inactive: -0.034
QDPR (UniProt P09417)	inactive: -0.019
R3HDM1 isoform 2 (UniProt Q15032)	inactive: -0.084
PSMA2 (UniProt P25787)	inactive: -0.026
PSMD13 (UniProt Q9UNM6)	inactive: -0.018
PSMD1 (UniProt Q99460)	inactive: 0.006
PSMB6 (UniProt P28072)	inactive: -0.054
PTP4A2 (UniProt Q12974)	inactive: 0.011
PUS7 isoform 2 (UniProt Q96PZ0)	inactive: 0.016

The targets below were run with O=C(CCCCCCC(=O)Nc1ccccc1)NO [vorinostat] in the same assay as above.
Outline: as §1

Target	log2 fold change
PSMD4 (UniProt Q5VWC4)	inactive: 0.283
PSMD3 (UniProt O43242)	inactive: -0.009
PYCR1 isoform 3 (UniProt P32322)	inactive: -0.013
PTMA (UniProt P06454)	inactive: -0.026
QPCTL (UniProt Q9NXS2)	inactive: 0.021
PSMG3 (UniProt Q9BT73)	inactive: 0.011
PTPN23 (UniProt Q9H3S7)	inactive: 0.05
PSMB2, A0A087WVV1	inactive: 0.124
PYCARD (UniProt Q9ULZ3)	inactive: -0.058
PSMB7 (UniProt Q99436)	inactive: -0.037
PTPMT1 (UniProt Q8WUK0)	inactive: 0.049
PTPN1 (UniProt P18031)	inactive: 0.088
PTK2B (UniProt Q14289)	inactive: 0.011
PSMA3 (UniProt P25788)	inactive: -0.029
PYURF (UniProt Q96I23)	inactive: -0.118
PSMB4 (UniProt P28070)	inactive: -0.019
QSOX1 (UniProt O00391)	inactive: 0
QTRT2 isoform 4 (UniProt Q9H974)	inactive: -0.002
PTBP3 isoform 4 (UniProt O95758)	inactive: 0.058
PSEN2 (UniProt P49810)	inactive: -0.078
QDPR (UniProt P09417)	inactive: -0.026
R3HDM1 isoform 2 (UniProt Q15032)	inactive: 0.098
PSMA2 (UniProt P25787)	inactive: -0.021
PSMD13 (UniProt Q9UNM6)	inactive: 0.001
PSMD1 (UniProt Q99460)	inactive: 0.013
PSMB6 (UniProt P28072)	inactive: -0.093
PUS7 isoform 2 (UniProt Q96PZ0)	inactive: 0.041
